Assay results as given in PMC5553161.
Results are given in words; binding and its absence hold for the method and conditions named. Binding seen in cells or lysates may run through a third protein. A yes stands for co-enrichment or nearness to the bait. Other partners may have been found.

Experiments:
[1] = biological target: One-Strep-tagged (OST) wild-type NS5A of hepatitis C virus JFH-1 (genotype 2a) (hepatitis C virus JFH-1 (genotype 2a)); experiment: affinity purification with mass spectrometry; OST-tagged NS5A captured on Strep-Tactin Sepharose beads from 2 mg clarified lysate of SGR-harboring Huh7 cells (TAP lysis buffer: 50 mM Tris-HCl pH 7.5, 100 mM NaCl, 5% glycerol, 0.2% Nonidet P-40, 1.5 mM MgCl2; Benzonase), 60 min at 4°C; label-free LC-MS/MS, four purifications for each bait
[2] = biological target: One-Strep-tagged (OST) NS5A S225D of hepatitis C virus JFH-1 (genotype 2a) (hepatitis C virus JFH-1 (genotype 2a)); experiment: as above

B1: bridging integrator 1 (protein, UniProt O00499 1-593)
chain: MAEMGSKGVTAGKIASNVQKKLTRAQEKVLQKLGKADETKDEQFEQCVQNFNKQLTEGTRLQKDLRTYLASVKAMHEASKKLNECLQEVYEPDWPGRDEANKIAENNDLLWMDYHQKLVDQALLTMDTYLGQFPDIKSRIAKRGRKLVDYDSARHHYESLQTAKKKDEAKIAKPVSLLEKAAPQWCQGKLQAHLVAQTNLLRNQAEEELIKAQKVFEEMNVDLQEELPSLWNSRVGFYVNTFQSIAGLEENFHKEMSKLNQNLNDVLVGLEKQHGSNTFTVKAQPSDNAPAKGNKSPSPPDGSPAATPEIRVNHEPEPAGGATPGATLPKSPSQLRKGPPVPPPPKHTPSKEVKQEQILSLFEDTFVPEISVTTPSQFEAPGPFSEQASLLDLDFDPLPPVTSPVKAPTPSGQSIPWDLWEPTESPAGSLPSGEPSAAEGTFAVSWPSQTAEPGPAQPAEASEVAGGTQPAAGAQEPGETAASEAASSSLPAVVVETFPATVNGTVEGGSGAGRLDLPPGFMFKVQAQHDYTATDTDELQLKAGDVVLVIPFQNPEEQDEGWLMGVKESDWNQHKELEKCRGVFPENFTERVP
binding [1]: binds
binding [2]: binds
